Measured values from the supplement of paper PMC10849652.
The other results are listed elsewhere or left out.

By UniProt entry, the sequences of proteins in these tests, tags left out. Where a name states a change or a piece, a line headed by the entry shows the natural chain unless it says otherwise.
UniProt Q9BV29: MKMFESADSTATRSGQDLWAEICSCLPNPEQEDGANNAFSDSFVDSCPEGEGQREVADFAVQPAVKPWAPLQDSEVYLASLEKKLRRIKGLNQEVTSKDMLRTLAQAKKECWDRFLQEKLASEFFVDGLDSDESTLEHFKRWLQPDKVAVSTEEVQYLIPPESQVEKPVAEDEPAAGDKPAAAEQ
UniProt P20810: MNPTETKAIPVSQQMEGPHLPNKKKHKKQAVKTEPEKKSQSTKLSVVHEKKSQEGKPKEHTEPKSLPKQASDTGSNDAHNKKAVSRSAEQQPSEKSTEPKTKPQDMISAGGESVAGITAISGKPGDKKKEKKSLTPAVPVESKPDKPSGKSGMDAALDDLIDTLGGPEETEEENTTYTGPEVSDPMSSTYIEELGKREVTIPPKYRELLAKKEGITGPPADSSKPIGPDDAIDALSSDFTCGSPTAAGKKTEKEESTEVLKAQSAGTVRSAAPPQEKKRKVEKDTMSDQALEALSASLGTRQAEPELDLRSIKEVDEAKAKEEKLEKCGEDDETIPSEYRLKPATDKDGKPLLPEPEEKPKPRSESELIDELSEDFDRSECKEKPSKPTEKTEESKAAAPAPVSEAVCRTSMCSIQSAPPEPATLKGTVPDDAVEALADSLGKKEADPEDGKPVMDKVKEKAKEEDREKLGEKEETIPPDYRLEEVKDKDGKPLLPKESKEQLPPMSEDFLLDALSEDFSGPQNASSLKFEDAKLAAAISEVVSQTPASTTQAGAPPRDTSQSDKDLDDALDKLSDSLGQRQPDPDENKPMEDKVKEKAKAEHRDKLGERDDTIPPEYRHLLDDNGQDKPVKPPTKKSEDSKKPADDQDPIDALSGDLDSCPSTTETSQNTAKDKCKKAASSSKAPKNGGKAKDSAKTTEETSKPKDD
UniProt P86791: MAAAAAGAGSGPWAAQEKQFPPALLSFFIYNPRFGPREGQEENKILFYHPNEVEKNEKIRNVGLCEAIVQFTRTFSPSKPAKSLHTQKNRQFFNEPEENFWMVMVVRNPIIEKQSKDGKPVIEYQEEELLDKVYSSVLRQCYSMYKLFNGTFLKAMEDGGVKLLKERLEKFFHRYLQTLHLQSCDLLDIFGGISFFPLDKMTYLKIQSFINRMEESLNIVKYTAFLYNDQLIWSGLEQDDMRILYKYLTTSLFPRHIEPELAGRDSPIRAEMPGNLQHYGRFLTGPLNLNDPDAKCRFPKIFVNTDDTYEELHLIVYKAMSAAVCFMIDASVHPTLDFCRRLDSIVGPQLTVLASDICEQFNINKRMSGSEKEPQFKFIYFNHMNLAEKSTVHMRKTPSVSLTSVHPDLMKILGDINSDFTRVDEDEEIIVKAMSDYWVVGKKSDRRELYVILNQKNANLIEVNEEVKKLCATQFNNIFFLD
UniProt Q4G0I0: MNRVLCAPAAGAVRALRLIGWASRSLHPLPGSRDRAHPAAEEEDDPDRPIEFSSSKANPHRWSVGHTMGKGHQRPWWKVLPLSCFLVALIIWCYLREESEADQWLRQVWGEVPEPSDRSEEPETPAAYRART
UniProt Q6P1N0: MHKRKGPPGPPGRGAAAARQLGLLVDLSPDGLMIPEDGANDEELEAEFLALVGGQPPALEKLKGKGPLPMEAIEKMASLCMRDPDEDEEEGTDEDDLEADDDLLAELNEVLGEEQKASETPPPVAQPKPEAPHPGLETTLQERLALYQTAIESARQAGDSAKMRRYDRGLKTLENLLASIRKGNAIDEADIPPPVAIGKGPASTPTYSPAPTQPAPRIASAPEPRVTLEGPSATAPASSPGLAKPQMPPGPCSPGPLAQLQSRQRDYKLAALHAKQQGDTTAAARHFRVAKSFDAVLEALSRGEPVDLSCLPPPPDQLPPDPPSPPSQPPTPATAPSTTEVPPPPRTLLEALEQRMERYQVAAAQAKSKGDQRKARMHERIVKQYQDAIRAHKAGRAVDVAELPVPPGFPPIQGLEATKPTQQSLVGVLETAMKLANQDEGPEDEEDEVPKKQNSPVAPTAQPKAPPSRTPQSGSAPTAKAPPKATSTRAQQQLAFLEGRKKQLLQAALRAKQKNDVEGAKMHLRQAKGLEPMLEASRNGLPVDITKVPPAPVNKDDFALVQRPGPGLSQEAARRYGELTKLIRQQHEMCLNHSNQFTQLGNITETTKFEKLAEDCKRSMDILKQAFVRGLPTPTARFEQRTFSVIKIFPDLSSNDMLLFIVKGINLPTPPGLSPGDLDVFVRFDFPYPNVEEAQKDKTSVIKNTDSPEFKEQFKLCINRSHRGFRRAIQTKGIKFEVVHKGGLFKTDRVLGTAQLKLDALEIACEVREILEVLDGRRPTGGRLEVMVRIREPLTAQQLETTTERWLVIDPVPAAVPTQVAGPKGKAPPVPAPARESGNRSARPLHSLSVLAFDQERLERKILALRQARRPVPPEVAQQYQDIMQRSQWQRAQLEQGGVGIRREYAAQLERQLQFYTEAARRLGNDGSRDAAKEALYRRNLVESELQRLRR
UniProt P60033: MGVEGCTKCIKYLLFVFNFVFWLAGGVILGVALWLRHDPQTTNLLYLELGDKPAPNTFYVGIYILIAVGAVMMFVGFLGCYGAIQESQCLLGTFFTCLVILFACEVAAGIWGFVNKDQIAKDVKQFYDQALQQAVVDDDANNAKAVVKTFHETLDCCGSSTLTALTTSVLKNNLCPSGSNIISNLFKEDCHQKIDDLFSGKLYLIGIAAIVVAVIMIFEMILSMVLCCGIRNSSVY
UniProt Q6P4E1: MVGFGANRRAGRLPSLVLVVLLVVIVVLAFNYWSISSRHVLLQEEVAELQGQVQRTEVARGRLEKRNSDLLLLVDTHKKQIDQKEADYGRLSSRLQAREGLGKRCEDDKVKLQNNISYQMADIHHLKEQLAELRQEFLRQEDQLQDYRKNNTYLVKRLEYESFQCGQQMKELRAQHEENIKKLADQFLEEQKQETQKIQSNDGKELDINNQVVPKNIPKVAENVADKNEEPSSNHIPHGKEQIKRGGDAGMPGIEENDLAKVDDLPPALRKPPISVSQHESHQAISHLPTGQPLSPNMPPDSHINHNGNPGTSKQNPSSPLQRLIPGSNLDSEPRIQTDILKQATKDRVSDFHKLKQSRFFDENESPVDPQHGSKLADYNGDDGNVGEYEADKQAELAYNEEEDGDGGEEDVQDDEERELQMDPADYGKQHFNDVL
UniProt Q96S94: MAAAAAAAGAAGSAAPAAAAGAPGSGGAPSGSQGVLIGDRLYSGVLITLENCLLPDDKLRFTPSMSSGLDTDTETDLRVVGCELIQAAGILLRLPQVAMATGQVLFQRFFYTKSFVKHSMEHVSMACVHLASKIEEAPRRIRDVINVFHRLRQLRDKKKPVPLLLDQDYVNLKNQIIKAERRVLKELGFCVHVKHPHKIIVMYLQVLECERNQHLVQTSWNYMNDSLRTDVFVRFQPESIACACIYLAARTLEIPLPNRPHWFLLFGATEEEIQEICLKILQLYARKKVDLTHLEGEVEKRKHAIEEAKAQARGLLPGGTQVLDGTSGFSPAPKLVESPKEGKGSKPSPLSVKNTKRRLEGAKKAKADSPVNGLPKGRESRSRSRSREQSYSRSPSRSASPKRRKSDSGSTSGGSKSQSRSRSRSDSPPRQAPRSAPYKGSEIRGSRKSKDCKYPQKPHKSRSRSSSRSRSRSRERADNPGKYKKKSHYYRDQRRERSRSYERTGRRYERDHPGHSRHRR
UniProt Q9ULG6: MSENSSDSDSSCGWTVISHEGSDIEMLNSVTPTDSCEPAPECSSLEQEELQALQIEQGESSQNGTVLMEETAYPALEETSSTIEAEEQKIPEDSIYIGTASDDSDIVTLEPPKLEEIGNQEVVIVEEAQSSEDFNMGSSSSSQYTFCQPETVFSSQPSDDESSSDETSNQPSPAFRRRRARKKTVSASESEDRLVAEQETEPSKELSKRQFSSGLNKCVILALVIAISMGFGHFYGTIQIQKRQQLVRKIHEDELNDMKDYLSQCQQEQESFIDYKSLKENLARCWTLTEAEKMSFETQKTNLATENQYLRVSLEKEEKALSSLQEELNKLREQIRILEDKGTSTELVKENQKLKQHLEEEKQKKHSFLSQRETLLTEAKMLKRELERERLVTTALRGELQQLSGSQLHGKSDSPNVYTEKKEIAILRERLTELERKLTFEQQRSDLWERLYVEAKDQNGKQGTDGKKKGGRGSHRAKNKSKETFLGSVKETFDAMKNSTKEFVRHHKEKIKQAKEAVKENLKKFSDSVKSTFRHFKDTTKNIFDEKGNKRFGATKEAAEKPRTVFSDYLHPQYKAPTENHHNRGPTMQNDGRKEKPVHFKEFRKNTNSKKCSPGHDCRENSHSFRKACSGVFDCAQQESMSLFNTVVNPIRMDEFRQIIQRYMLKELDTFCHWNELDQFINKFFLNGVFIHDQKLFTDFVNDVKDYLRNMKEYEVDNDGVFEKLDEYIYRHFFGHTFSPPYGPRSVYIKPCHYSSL

Experiments:
Assay in all cases: log2 fold change, soluble protein after heating vs DMSO (PISA); higher = thermal stabilisation; K562 lysate, 10 uM; active = over 0.2 and 3.5 SD of the protein, either way, in both replicates (recomputed)
nilotinib = compound: Cc1cn(-c2cc(NC(=O)c3ccc(C)c(Nc4nccc(-c5cccnc5)n4)c3)cc(C(F)(F)F)c2)cn1 [nilotinib]
Method in brief: (§1)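 Following dounce homogenisation of K562 pellets in PBS pH 7.4 with 1 mM MgCl2, crude extract at 1 mg/mL protein was incubated for 30 min with 10 μM compound. Aliquots were then heated for 3 min over 48°C-58°C and pooled, NP-40 was added to 0.5% at 4°C, and soluble protein was recovered as the supernatant at 21,000xg for 90 min. Channel-sum-equalised TMTpro 16plex LC-MS/MS quantified this protein. Each value, from duplicates, is a log-two fold change in thermal stability relative to solvent controls.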

[1] = compound: Cc1nc(Nc2n[nH]c3c2CN(C(=O)N[C@H](CN(C)C)c2ccccc2)C3(C)C)c2sccc2n1
Method in brief: as §1

dasatinib = compound: Cc1nc(Nc2ncc(C(=O)Nc3c(C)cccc3Cl)s2)cc(N2CCN(CCO)CC2)n1 [dasatinib]
Method in brief: as §1

[2] = compound: Cc1ncc(-c2ccnc(Nc3ccc(S(C)(=O)=O)cc3)n2)n1C(C)C
Method in brief: as §1

[3] = compound: Cn1cc(-c2ccc3c(c2)CCN3C(=O)Cc2cccc(C(F)(F)F)c2)c2c(N)ncnc21
Method in brief: as §1

quisinostat = compound: Cn1cc(CNCC2CCN(c3ncc(C(=O)NO)cn3)CC2)c2ccccc21 [quisinostat]
Method in brief: as §1

tipifarnib = compound: Cn1cncc1[C@@](N)(c1ccc(Cl)cc1)c1ccc2c(c1)c(-c1cccc(Cl)c1)cc(=O)n2C [tipifarnib]
Method in brief: as §1

[4] = compound: NC(=O)Nc1cc(-c2cccc(F)c2)sc1C(=O)N[C@H]1CCCNC1
Method in brief: as §1

[5] = compound: NC(=O)c1cnc(N[C@@H]2CCCC[C@@H]2N)nc1Nc1cccc(-n2nccn2)c1
Method in brief: as §1

[6] = compound: NC1(c2ccc(-c3nc4ccn5c(=O)[nH]nc5c4cc3-c3ccccc3)cc2)CCC1
Method in brief: as §1

[7] = compound: NCC(=O)Nc1ccc(-n2nc(C(F)(F)F)cc2-c2ccc3c(ccc4ccccc43)c2)cc1
Method in brief: as §1

vorinostat = compound: O=C(CCCCCCC(=O)Nc1ccccc1)NO [vorinostat]
Method in brief: as §1

silmitasertib = compound: O=C(O)c1ccc2c(c1)nc(Nc1cccc(Cl)c1)c1ccncc12 [silmitasertib]
Method in brief: as §1

[8] = compound: O=C1NC(=O)C(c2cnc3ccccn23)=C1c1cn2c3c(cc(F)cc13)CN(C(=O)N1CCCCC1)CC2
Method in brief: as §1

entospletinib = compound: c1cn2cc(-c3ccc4cn[nH]c4c3)nc(Nc3ccc(N4CCOCC4)cc3)c2n1 [entospletinib]
Method in brief: as §1

Measured: log2 fold change

CCDC32 isoform 2 (UniProt Q9BV29)
inactive: nilotinib -0.009 | [1] 0.024 | dasatinib 0.021 | [2] 0.105 | [3] -0.001 | quisinostat -0.05 | tipifarnib 0.076 | [4] -0.028 | [5] -0.05 | [6] -0.03 | [7] 0.005 | vorinostat 0.058 | silmitasertib -0.044 | [8] 0.009 | entospletinib -0.042

CAST isoform 6 (UniProt P20810)
inactive: nilotinib 0.007 | [1] 0.028 | dasatinib 0.049 | [2] 0.007 | [3] -0.03 | quisinostat 0.033 | tipifarnib -0.028 | [4] -0.038 | [5] -0.02 | [6] 0.001 | [7] 0.016 | vorinostat 0.064 | silmitasertib -0.032 | [8] -0.003 | entospletinib -0.002

CCZ1 (UniProt P86791)
inactive: nilotinib 0.01 | [1] -0.042 | dasatinib 0.015 | [2] -0.041 | [3] 0.018 | quisinostat -0.016 | tipifarnib 0.004 | [4] 0.025 | [5] 0.008 | [6] 0.03 | [7] -0.003 | vorinostat -0.165 | silmitasertib 0.043 | [8] -0.013 | entospletinib -0.012

CCSMST1 (UniProt Q4G0I0)
inactive: nilotinib 0.069 | [1] 0.05 | dasatinib -0.069 | [2] -0.127 | [3] 0.076 | quisinostat -0.065 | tipifarnib 0.096 | [4] -0.057 | [5] 0.03 | [6] -0.062 | [7] 0.002 | vorinostat 0.093 | silmitasertib 0.021 | [8] -0.136 | entospletinib -0.1

CBL (UniProt P22681)
inactive: nilotinib 0.015 | [1] -0.005 | dasatinib 0.012 | [2] -0.015 | [3] -0.006 | quisinostat 0.061 | tipifarnib -0.022 | [4] -0.006 | [5] 0.003 | [6] 0.002 | [7] -0.008 | vorinostat 0.003 | silmitasertib -0.005 | [8] 0.014 | entospletinib -0.003

CC2D1A (UniProt Q6P1N0)
inactive: nilotinib -0.013 | [1] -0.011 | dasatinib -0.022 | [2] -0.003 | [3] -0.031 | quisinostat -0.047 | tipifarnib 0.023 | [4] -0.007 | [5] 0.023 | [6] 0.043 | [7] 0.028 | vorinostat -0.093 | silmitasertib 0.038 | [8] 0.013 | entospletinib -0.011

CD81 (UniProt P60033)
inactive: nilotinib -0.022 | [1] -0.012 | dasatinib 0.018 | [2] -0.07 | [3] -0.126 | quisinostat -0.196 | tipifarnib -0.07 | [4] 0.037 | [5] -0.039 | [6] -0.041 | [7] 0.022 | vorinostat -0.018 | silmitasertib 0.007 | [8] 0.043 | entospletinib -0.052

CASC4 (UniProt Q6P4E1)
inactive: nilotinib -0.072 | [1] -0.006 | dasatinib 0.037 | [2] 0.053 | [3] 0.029 | quisinostat 0.021 | tipifarnib -0.033 | [4] -0.024 | [5] 0.035 | [6] -0.011 | [7] -0.034 | vorinostat 0.02 | silmitasertib 0.019 | [8] 0.025 | entospletinib -0.029

CCNL2 (UniProt Q96S94)
inactive: nilotinib 0.046 | [1] -0.024 | dasatinib -0.02 | [2] 0.022 | [3] 0 | quisinostat -0.021 | tipifarnib 0.035 | [4] 0.05 | [5] 0.043 | [6] -0.002 | [7] -0.18 | vorinostat -0.18 | silmitasertib -0.045 | [8] 0.052 | entospletinib -0.114

CCPG1 isoform 5 (UniProt Q9ULG6)
inactive: nilotinib 0.067 | [1] 0.017 | dasatinib 0.013 | [2] 0.087 | [3] 0.004 | quisinostat -0.021 | tipifarnib -0.033 | [4] 0.029 | [5] 0 | [6] -0.073 | [7] -0.022 | vorinostat 0.043 | silmitasertib -0.012 | [8] -0.025 | entospletinib 0
